PubChem BioAssay AID1259308 – NCATS, 2017
Assay: 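Knock-downs that increase output of a recombinant reporter protein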 (primary screen). Cells: human HEK293 embryonic kidney cells stably expressing firefly luciferase (HEK-CMV-Luc2-Hygro). Reagents: single siRNA against human genes, 0.8 pmol siRNA per well. Timing: 72 h. Measurement: 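Luciferase light (ONE-Glo) measured on one replicate plate set and viability (CellTiter-Glo) on the other, scaled to a negative control siRNA, with robust z-scores and luciferase per cell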. Direction: total luciferase, z-score and total luciferase, % of control: higher = more reporter protein produced. Call rule: 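Active when the median/MAD z-score for overall luciferase is greater than 3; a gene was taken forward for validation with new siRNAs if at least two of its three siRNAs passed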. Calls: active = raised luciferase; inactive = no rise.
Here is one part, drawn at random, of about 59,000 reagents tested. Of all reagents, about 1,510 (2.6%) were called active. 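Calls use total luciferase alone and ignore viability, so some active siRNAs may act by altering cell number.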 Entries without a mark were called inactive. Reagents against one gene are numbered here. Further read-outs or replicates are left out here.

Silencing of FAM234B (family with sequence similarity 234 member B) #1 came out at: total luciferase, z-score 0.656; total luciferase, % of control 94.9.
FAM234B (family with sequence similarity 234 member B) #2 scored total luciferase, z-score -0.74; total luciferase, % of control 67.2.
Against FAM234B (family with sequence similarity 234 member B) #3, the values are total luciferase, z-score -0.548; total luciferase, % of control 71.
Against HSPB8 (heat shock protein family B (small) member 8) #1, the values are total luciferase, z-score 0.85; total luciferase, % of control 98.8.
HSPB8 (heat shock protein family B (small) member 8) #2 scored total luciferase, z-score 0.349; total luciferase, % of control 88.8.
HSPB8 (heat shock protein family B (small) member 8) #3 gave total luciferase, z-score 0.279; total luciferase, % of control 87.4.

Sorted by “total luciferase, % of control” (highest first): 2 of the entries above
HSPB8 (heat shock protein family B (small) member 8) #2: total luciferase, z-score = 0.349; total luciferase, % of control = 88.8
HSPB8 (heat shock protein family B (small) member 8) #3: total luciferase, z-score = 0.279; total luciferase, % of control = 87.4

Continued.
MBLAC1 (metallo-beta-lactamase domain containing 1) #1 scored total luciferase, z-score -0.278; total luciferase, % of control 76.4.
After knock-down of MBLAC1 (metallo-beta-lactamase domain containing 1) #2, the screen gave total luciferase, z-score 2.21; total luciferase, % of control 126.
Depletion of MBLAC1 (metallo-beta-lactamase domain containing 1) #3 gave: total luciferase, z-score -1.73; total luciferase, % of control 47.4.
With knock-down of RAB5IF (RAB5 interacting factor) #1 the results were total luciferase, z-score -0.141; total luciferase, % of control 79.1.
Silencing of RAB5IF (RAB5 interacting factor) #2 resulted in: total luciferase, z-score -0.318; total luciferase, % of control 75.6.
Against RAB5IF (RAB5 interacting factor) #3 the deposit lists total luciferase, z-score -0.27; total luciferase, % of control 76.5.
